According to article PMC1414084:
Results are given in words; binding and its absence hold for the method and conditions named. For some of these results: In cells and extracts the contact can be indirect. Some entries that bind do so weakly or less than the wild type.

Columns and labels:
[1] = target: T1, PH1645, ortholog of ADP-specific phosphofructokinase (Pyrococcus horikoshii OT3) (UniProt O59355); assay: two-hybrid; mammalian two-hybrid; bait fused to the Gal4 DNA-binding domain (BIND), prey to the VP16 transcriptional activation domain (ACT); luciferase reporter; cultured mammalian cells, 37°C; positive from 3 times the background activity (level 1), the selected set is level 2 (>=5 to <10 times) and level 3 (>=10 times)
T1 sequence: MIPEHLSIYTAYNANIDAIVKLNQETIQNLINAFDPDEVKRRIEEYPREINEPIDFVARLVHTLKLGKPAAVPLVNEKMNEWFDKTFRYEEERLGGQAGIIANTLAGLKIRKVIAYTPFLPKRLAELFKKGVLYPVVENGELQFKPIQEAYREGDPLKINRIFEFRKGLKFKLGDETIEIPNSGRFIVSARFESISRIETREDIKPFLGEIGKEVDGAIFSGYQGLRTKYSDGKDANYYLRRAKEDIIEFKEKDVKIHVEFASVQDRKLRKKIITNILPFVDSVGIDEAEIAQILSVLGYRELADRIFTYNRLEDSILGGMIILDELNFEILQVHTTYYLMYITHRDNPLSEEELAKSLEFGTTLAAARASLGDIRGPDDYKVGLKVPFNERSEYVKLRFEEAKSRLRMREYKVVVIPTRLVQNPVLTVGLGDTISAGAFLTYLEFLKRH

[2] = target: T2, PH1354, SNO like protein, biotinylated, in vitro translated (Pyrococcus horikoshii OT3) (UniProt O59079); assay: pull-down; in vitro pull-down; biotinylated driver and ^35S-labeled protein, both in vitro translated in reticulocyte lysate, pre-incubated 15 minutes at 37°C (non-heat) or 75°C (heat), mixed 1 h at 25°C, Dynabeads Streptavidin, washed with TBS-T, autoradiography
T2 sequence (chain, biotinylated lysine (Transcend Biotinylated lysine-tRNA)): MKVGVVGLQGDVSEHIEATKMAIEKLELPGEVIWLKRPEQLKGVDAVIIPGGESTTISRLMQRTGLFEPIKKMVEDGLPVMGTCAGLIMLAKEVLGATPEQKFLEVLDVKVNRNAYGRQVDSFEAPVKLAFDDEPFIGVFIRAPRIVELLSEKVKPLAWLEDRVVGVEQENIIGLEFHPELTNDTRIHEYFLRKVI

[3] = target: T3, PH0795, hypothetical protein, biotinylated, in vitro translated (Pyrococcus horikoshii OT3) (UniProt O58525); assay: as above
T3 sequence (chain, biotinylated lysine (Transcend Biotinylated lysine-tRNA)): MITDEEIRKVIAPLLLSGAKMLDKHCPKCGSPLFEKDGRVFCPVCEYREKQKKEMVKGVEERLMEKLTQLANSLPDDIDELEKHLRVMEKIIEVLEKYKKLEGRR

[4] = target: PH1589, deoxycytidylate deaminase (Pyrococcus horikoshii OT3) (UniProt O59259); assay: two-hybrid; mammalian two-hybrid; bait fused to the Gal4 DNA-binding domain (BIND), prey to the VP16 transcriptional activation domain (ACT); luciferase reporter; cultured mammalian cells, 37°C; positive from 3 times the background activity (level 1), the selected set is level 2 (>=5 to <10 times) and level 3 (>=10 times)
[5] = target: T4, PH0245, 20S proteasome subunit, biotinylated, in vitro translated (Pyrococcus horikoshii OT3) (UniProt O57983); assay: pull-down; in vitro pull-down; biotinylated driver and ^35S-labeled protein, both in vitro translated in reticulocyte lysate, pre-incubated 15 minutes at 37°C (non-heat) or 75°C (heat), mixed 1 h at 25°C, Dynabeads Streptavidin, washed with TBS-T, autoradiography
T4 sequence (chain, biotinylated lysine (Transcend Biotinylated lysine-tRNA)): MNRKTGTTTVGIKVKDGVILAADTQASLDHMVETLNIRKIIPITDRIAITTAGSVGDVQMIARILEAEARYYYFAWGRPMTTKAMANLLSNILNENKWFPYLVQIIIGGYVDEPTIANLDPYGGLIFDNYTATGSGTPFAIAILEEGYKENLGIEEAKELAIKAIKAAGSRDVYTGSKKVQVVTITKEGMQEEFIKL

[6] = target: PH1884, triosephosphate isomerase (Pyrococcus horikoshii OT3) (UniProt O59536); assay: two-hybrid; mammalian two-hybrid; bait fused to the Gal4 DNA-binding domain (BIND), prey to the VP16 transcriptional activation domain (ACT); luciferase reporter; cultured mammalian cells, 37°C; positive from 3 times the background activity (level 1), the selected set is level 2 (>=5 to <10 times) and level 3 (>=10 times)
[7] = target: PH0385, MorR-like ATPase (Pyrococcus horikoshii OT3) (UniProt O58122); assay: as above

B1: PH1022, ortholog of mannose-1-phosphate guanylyltransferase (protein, UniProt O58775 1-416)
chain: MNKMKAVILAGGFGTRLRPISSTRPKPMVPVLGKPNLQYILEALEKVKEIDEIILSVHYMRGEIREFIQEKMRDYPKDIRFVNDPMPLETGGALKNVEEYVSDDFLVIYGDVFTNFDYSELIEAHKKNDGLITVALTKVYDPERFGVVITDEEGKIVEFEEKPRKPKTNLVDAGIYMVNKDVLKEIPKNKEIYFEREILPKFVNQGLVYGYKMPKQYYWVDLGTPEDFFYAHQIALDELSKENGYMILGENVEIPDDVEVQGPVYIDDNAKIGHGVKIKAYTYIGPNTIIEDKAYFKRSILLGNDIIKERAELKDAILGEGVVVGKDVIIKENAVIGDYAKIYDNLVIYGAKVLPWKKVEEYEAYIKIKLDPTKVRPGQYPDHCPLGLPECIYKKFKAIAGEKPPCDECIENQWLF
binding [1]: binds

B2: PH1355, SNZ like protein, ^35S-labeled, in vitro translated (protein, UniProt O59080 1-335)
chain: MDKLKIIMEKGTERLKRGFAKMVKGGVIMDVTNAEQARIAEEAGAVAVMALHKVPADIRKAGGVARMAPVEKIQEIMDAVTIPVMAKCRIGHEAEARILEALGVDMIDESEVLTPADPFFHIYKKKFTAPFVCGARNLGEAVRRIWEGAAMIRTKGEAGTGNIIEAVRHVRLVNENIRLIQRMTDEEIYGVAEKFAEPYLRLAFSVKEISGLPKRVLENEPIYEGFTYREIVEDIYKILLEIKKLGRLPVVNFAAGGVATPADAALMMAMGMDGVFVGSGIFKSSNPPKMARAIVEAVNHWDEPDVLAEISREIGEPMRGQAIEELQVRMEERGI
modifications: L-[^35S] methionine
binding [2]: binds

B3: PH0017, ^35S-labeled, in vitro translated (protein, UniProt O57762 1-549)
chain: MAQLAGQPILILPEGTQRYVGRDAQRMNILAARIIAETVRTTLGPKGMDKMLVDSLGDIVITNDGATILDEMDIQHPAAKMMVEVAKTQDKEAGDGTTTAVVIAGELLKKAEELLDQNIHPSIIIKGYTLASQKAQEILDSIAKEVKPDDEEVLLKAAMTAITGKAAEEEREYLAKLAVEAVKLVAEEKDGKLKVDIDNIKLEKKEGGAVRDTRLIRGVVIDKEVVHPGMPKRIENAKIALINDALEVKETETDAEIRITSPEQLQAFLEQEEKMLKEMVDKIKEVGANVVFVQKGIDDLAQHYLAKYGILAVRRVKKSDMEKLAKATGAKIVTNIRDLTPEDLGEAELVEERKVAGENMIFVEGCKNPKAVTILIRGGTEHVVDEVERALEDAIKVVKDILEDGKIIAGGGASEIELSIKLDEYAKEVGGKEQLAIEAFAEALKVIPRTLAENAGLDPIETLVKVIAAHKEKGQTIGIDVYEGEPADMMERGVIEPVRVKKQAIKSASEAAIMILRIDDVIAASKLEKEKEGEKGGGSEEFSGSSDLD
modifications: L-[^35S] methionine
binding [3]: binds

B4: PH1589, deoxycytidylate deaminase (protein, UniProt O59259 1-182)
chain: MKVEIVLDKEKAEKIKKIRPTKDEYFMLIAKLVSLRATCPRLRVGAVAVKDGYILATGYNGAPRNMDHCIDVGCIMVDGHCHRAVHAEQNVIAMAARKGISLEGATLYVTHFPCDTCLKLLINAGIKEIVYEEMYPNEVTEMLLKEAQEKGLIKIRQFKLSRERVKEFLEELFPEFCMEKND
binding [4]: binds

B5: PH1553, 20S proteasome subunit, ^35S-labeled, in vitro translated (protein, UniProt O59219 1-260)
chain: MAFVPPQAGYDRAITVFSPDGRLFQVNYAREAVKRGATAVGVKCNEGVVLAVEKRITSRLIEPESYEKIFQIDDHIAAASSGIIADARVLVNRARLEAQIHRLTYGEPAPLAVIVKKICDLKQMHTQYGGVRPFGAALLMAGVNEKPELYETDPSGAYFAWKAVAIGSGRNTAMAIFEEKYKDDMSLEEAIKLAIFALAKTMEKPSAENIEVAIITVKDKKFRKLSREEIEKYLNEVMKEVEEEEVKEKEEDYSELDSHY
modifications: L-[^35S] methionine
binding [5]: binds

B6: PH1884, triosephosphate isomerase (protein, UniProt O59536 1-228)
chain: MKLDEPIIAINFKTYIEATGKRALEIAKAAERVYKETGVTIVVAPQLVDLRMIAENVEIPVFAQHIDPIKPGSHTGHVLPEAVKEAGAVGTLLNHSENRMILADLEAAISRAKEVGLITMVCSNNPAVSAAVAALEPDYVAVEPPELIGTGIPVSKAKPEVITNTVELVRKVNPKVKVLCGAGISTGEDVRKAIELGTVGVLLASGVTKAKDPEKAIRDLVSGIIGKD
binding [6]: binds

B7: PH0385, MorR-like ATPase (protein, UniProt O58122 1-312)
chain: MVEMDGRKFLKLLKEEVHKAVVGKDDVIELLAIALLAEGHVMIEGVPGVAKTTIAKSFAQVLGLKFSRIQLTPDLLPADILGTVYYDQSDGLWKIKKGPIFANVVLADEINRAQPKTQSALLEAMQERQVTIEGRTFPLEKPFMVIATKNPIEFEGVYNLPEAQVDRFMLNIKIGYPTREEEVEMLRKKDRGELGEVGRIFSREQIVRMINEVKRVKTSEEVLHYLYEIVNETRKDERLIVGASPRASEHLLYASKAKAFLEGRDYVIPDDVKFLAVPVLAHRLLIKAEHEIEGIKGEDIVREILERVEVPI
binding [7]: binds
